Patent publication US20160200830A1

B1: sdAb A69433 (VHH, not shown: small tags and cut ends)
VHH: QVKLEESGGGLVQAGGSLRLSCVASGNVFGIDAVGWYRQAPGKQRELVAATTTSGSSTNYADSVKGRFTISRDIAKNTVYLQMDSLKPEDTAVYYCYARPKQATLIRDDYWGQGTQVTVSS
B2: sdAb A69447 (VHH, not shown: small tags and cut ends)
VHH: QVKLEESGGGSVQAGGSLRLSCTGSGSIFPLNDMGWYRQAPGKQRELVATITRGGTTNYADSVKGRFTISRDSNAKNTVYLQMNSLKVEDTAVYYCNMDNRVGGSYWGQGTQVTVSS
B3: sdAb A69449 (VHH, not shown: small tags and cut ends)
VHH: QVQLVESGGGVVQAGGSLRLSCVASGSVFSIDAMGWYRQAPGNQRELVAAMTNAGSTNYADSVKGRFTISRDNAENTVYLQMNSLKPEDTAVYYCNARSKLIARINNPYEYWGQGTQVTVSS

The binders below were run against monkey transferrin (monkey) (assay: SPR).

binding, binds:
B1
B2
B3

No constants are given. Whether binding was seen depends on the method and setting. Binding calls can cover weak binding; strength is not graded here.
